# The other results are listed elsewhere or left out.
# Legend:
# Test in all cases: glycan array binding signal (z-score within array); higher = stronger binding
# Conditions in all cases: glycan notation: IUPAC condensed, linker removed
# [1] = biological target: Fuc(a1-2)[Gal(a1-4)]Gal(b1-4)GlcNAc
# In short: (§1)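 Glycan array data came from 3228 arrays in the Consortium for Functional Glycomics database, and only arrays with an available protein sequence were kept. Glycan names were put into IUPAC-condensed notation, and columns mapping to the same glycan were averaged. The binding signal is a within-array Z-score, averaged across arrays of one protein sequence run at different concentrations or buffers and across linkers. A negative Z-score can be read as non-binding.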
# [2] = biological target: Fuc(a1-2)[GalNAc(a1-3)]Gal
# In short: as §1
# [3] = biological target: Fuc(a1-2)[GalNAc(a1-3)]Gal(b1-3)GalNAc(a1-3)[Fuc(a1-2)]Gal(b1-4)GlcNAc
# In short: as §1
# [4] = biological target: Fuc(a1-2)[GalNAc(a1-3)]Gal(b1-3)GalNAc(b1-3)Gal(a1-4)Gal(b1-4)Glc
# In short: as §1
# [5] = biological target: Fuc(a1-2)[GalNAc(a1-3)]Gal(b1-3)GlcNAc
# In short: as §1
# [6] = biological target: Fuc(a1-2)[GalNAc(a1-3)]Gal(b1-3)GlcNAc(b1-2)Man(a1-3)[Fuc(a1-2)[GalNAc(a1-3)]Gal(b1-3)GlcNAc(b1-2)Man(a1-6)]Man(b1-4)GlcNAc(b1-4)GlcNAc
# In short: as §1
# [7] = biological target: Fuc(a1-2)[GalNAc(a1-3)]Gal(b1-3)GlcNAc(b1-2)Man(a1-3)[Fuc(a1-2)[GalNAc(a1-3)]Gal(b1-3)GlcNAc(b1-2)Man(a1-6)]Man(b1-4)GlcNAc(b1-4)[Fuc(a1-6)]GlcNAc
# In short: as §1
# [8] = biological target: Fuc(a1-2)[GalNAc(a1-3)]Gal(b1-3)GlcNAc(b1-3)GalNAc
# In short: as §1
# [9] = biological target: Fuc(a1-2)[GalNAc(a1-3)]Gal(b1-3)GlcNAc(b1-6)GalNAc
# In short: as §1
# [10] = biological target: Fuc(a1-2)[GalNAc(a1-3)]Gal(b1-4)Glc
# In short: as §1
# [11] = biological target: Fuc(a1-2)[GalNAc(a1-3)]Gal(b1-4)GlcNAc
# In short: as §1
# [12] = biological target: Fuc(a1-2)[GalNAc(a1-3)]Gal(b1-4)GlcNAc(b1-2)Man
# In short: as §1
# [13] = biological target: Fuc(a1-2)[GalNAc(a1-3)]Gal(b1-4)GlcNAc(b1-2)Man(a1-3)[Fuc(a1-2)[GalNAc(a1-3)]Gal(b1-4)GlcNAc(b1-2)Man(a1-6)]Man(b1-4)GlcNAc(b1-4)GlcNAc
# In short: as §1
# [14] = biological target: Fuc(a1-2)[GalNAc(a1-3)]Gal(b1-4)GlcNAc(b1-2)Man(a1-3)[Fuc(a1-2)[GalNAc(a1-3)]Gal(b1-4)GlcNAc(b1-2)Man(a1-6)]Man(b1-4)GlcNAc(b1-4)[Fuc(a1-6)]GlcNAc
# In short: as §1
# [15] = biological target: Fuc(a1-2)[GalNAc(a1-3)]Gal(b1-4)GlcNAc(b1-3)Gal(b1-4)GlcNAc
# In short: as §1
# [16] = biological target: Fuc(a1-2)[GalNAc(a1-3)]Gal(b1-4)GlcNAc(b1-3)Gal(b1-4)GlcNAc(b1-3)Gal(b1-4)GlcNAc
# In short: as §1
# [17] = biological target: Fuc(a1-2)[GalNAc(a1-3)]Gal(b1-4)GlcNAc(b1-3)GalNAc
# In short: as §1
# [18] = biological target: Fuc(a1-2)[GalNAc(a1-3)]Gal(b1-4)GlcNAc(b1-3)[Fuc(a1-2)[GalNAc(a1-3)]Gal(b1-4)GlcNAc(b1-6)]GalNAc
# In short: as §1
# [19] = biological target: Fuc(a1-2)[GalNAc(a1-3)]Gal(b1-4)GlcNAc(b1-6)GalNAc
# In short: as §1
# [20] = biological target: Fuc(a1-2)[GalNAc(a1-3)]Gal(b1-4)[Fuc(a1-3)]GlcNAc
# In short: as §1
# [21] = biological target: Fuc(a1-2)[GalNAc(a1-3)]Gal(b1-4)[Fuc(a1-3)]GlcNAc(b1-3)GalNAc
# In short: as §1
# [22] = biological target: Fuc(a1-2)[GalNAc(a1-4)]Gal(b1-4)GlcNAc
# In short: as §1
# [23] = biological target: Fuc(a1-2)[GalNAc(b1-3)]Gal
# In short: as §1
# [24] = biological target: Fuc(a1-3)GlcNAc
# In short: as §1
# [25] = biological target: Fuc(a1-3)[Gal(b1-4)]Glc6S
# In short: as §1
# [26] = biological target: Fuc(a1-3)[Gal(b1-4)]GlcNAc
# In short: as §1
# [27] = biological target: Fuc(a1-3)[Gal(b1-4)]GlcNAc(b1-2)Man
# In short: as §1
# [28] = biological target: Fuc(a1-3)[Gal(b1-4)]GlcNAc(b1-2)Man(a1-3)[Fuc(a1-3)[Gal(b1-4)]GlcNAc(b1-2)Man(a1-6)]Man(b1-4)GlcNAc(b1-4)GlcNAc
# In short: as §1
# [29] = biological target: Fuc(a1-3)[Gal(b1-4)]GlcNAc(b1-2)Man(a1-3)[Fuc(a1-3)[Gal(b1-4)]GlcNAc(b1-2)Man(a1-6)]Man(b1-4)GlcNAc(b1-4)[Fuc(a1-6)]GlcNAc
# In short: as §1
# [30] = biological target: Fuc(a1-3)[Gal(b1-4)]GlcNAc(b1-3)Gal(b1-3)[Fuc(a1-4)]GlcNAc
# In short: as §1
# [31] = biological target: Fuc(a1-3)[Gal(b1-4)]GlcNAc(b1-3)Gal(b1-4)[Fuc(a1-3)]GlcNAc
# In short: as §1
# [32] = biological target: Fuc(a1-3)[Gal(b1-4)]GlcNAc(b1-3)Gal(b1-4)[Fuc(a1-3)]GlcNAc(b1-3)Gal(b1-4)[Fuc(a1-3)]GlcNAc
# In short: as §1
# [33] = biological target: Fuc(a1-3)[Gal(b1-4)]GlcNAc(b1-3)GalNAc
# In short: as §1
# [34] = biological target: Fuc(a1-3)[Gal(b1-4)]GlcNAc(b1-6)GalNAc
# In short: as §1
# [35] = biological target: Fuc(a1-3)[Gal(b1-4)]GlcNAc(b1-6)[Gal(b1-3)GlcNAc(b1-3)]Gal(b1-4)Glc
# In short: as §1
# [36] = biological target: Fuc(a1-3)[Gal(b1-4)]GlcNAc6S
# In short: as §1
# [37] = biological target: Fuc(a1-3)[Gal3S(b1-4)]Glc
# In short: as §1
# [38] = biological target: Fuc(a1-3)[Gal3S(b1-4)]GlcNAc
# In short: as §1
binder,measurement,setting,value
RobpsCRA (Robinia pseudoacacia) (protein) IKGGYWYSGSGLAVSDINPSHFTHLFCAFADLDPNTNKLTISSSNAAAFSTFTQTVRAKNPSVKTLLSIGGGGGRALAAVFANMASQASRRKSFIDSSIQLARRNNFHGLDLDWEYPSSDIDKTNFASLIREWRAAVATESSTSGTPALLLSAAVGGSDQITPLKYYPGEAIANNLDWVNVMTYDLYTSDSYPTLTQPPAPLFYPRGIFSADEGITKWIQSGVPESKLALGLPFYGFKWRLSDPNNHGLFAPATQGLGAVKYKDIVNTGGQVEFDSTYVTNYCFKGTDWYGYDDTQSISAKVAYAKQRGLFGYFAWHIEQDSNWALS,glycan array binding signal (z-score),[1],-0.128
same,glycan array binding signal (z-score),[2],-0.195
same,glycan array binding signal (z-score),[3],-0.198
same,glycan array binding signal (z-score),[4],0.265
same,glycan array binding signal (z-score),[5],1.23
same,glycan array binding signal (z-score),[6],-0.598
same,glycan array binding signal (z-score),[7],-0.163
same,glycan array binding signal (z-score),[8],-0.124
same,glycan array binding signal (z-score),[9],-0.584
same,glycan array binding signal (z-score),[10],0.174
same,glycan array binding signal (z-score),[11],-0.563
same,glycan array binding signal (z-score),[12],0.206
same,glycan array binding signal (z-score),[13],1.41
same,glycan array binding signal (z-score),[14],0.278
same,glycan array binding signal (z-score),[15],0.295
same,glycan array binding signal (z-score),[16],-0.213
same,glycan array binding signal (z-score),[17],-0.161
same,glycan array binding signal (z-score),[18],-0.158
same,glycan array binding signal (z-score),[19],-0.132
same,glycan array binding signal (z-score),[20],-0.375
same,glycan array binding signal (z-score),[21],16.3
same,glycan array binding signal (z-score),[22],1.45
same,glycan array binding signal (z-score),[23],0.157
same,glycan array binding signal (z-score),[24],-0.634
same,glycan array binding signal (z-score),[25],-0.076
same,glycan array binding signal (z-score),[26],-0.341
same,glycan array binding signal (z-score),[27],-0.403
same,glycan array binding signal (z-score),[28],-0.2
same,glycan array binding signal (z-score),[29],0.098
same,glycan array binding signal (z-score),[30],-0.007
same,glycan array binding signal (z-score),[31],-0.135
same,glycan array binding signal (z-score),[32],0.192
same,glycan array binding signal (z-score),[33],0.084
same,glycan array binding signal (z-score),[34],0.263
same,glycan array binding signal (z-score),[35],-0.481
same,glycan array binding signal (z-score),[36],-0.318
same,glycan array binding signal (z-score),[37],-0.504
same,glycan array binding signal (z-score),[38],0.518

# Given as tab-separated lines: part of the list above
binder	measurement	setting	value
RobpsCRA (Robinia pseudoacacia) (protein) IKGGYWYSGSGLAVSDINPSHFTHLFCAFADLDPNTNKLTISSSNAAAFSTFTQTVRAKNPSVKTLLSIGGGGGRALAAVFANMASQASRRKSFIDSSIQLARRNNFHGLDLDWEYPSSDIDKTNFASLIREWRAAVATESSTSGTPALLLSAAVGGSDQITPLKYYPGEAIANNLDWVNVMTYDLYTSDSYPTLTQPPAPLFYPRGIFSADEGITKWIQSGVPESKLALGLPFYGFKWRLSDPNNHGLFAPATQGLGAVKYKDIVNTGGQVEFDSTYVTNYCFKGTDWYGYDDTQSISAKVAYAKQRGLFGYFAWHIEQDSNWALS	glycan array binding signal (z-score)	[29]	0.098
same	glycan array binding signal (z-score)	[30]	-0.007

# Source: the supplement of paper PMC8728848
